Data reported in publication PMC9749133.
No constants are given. Whether binding was seen depends on the method and setting. For part of these data: Binding calls can cover weak binding; strength is not graded here. For part of these data: Binding seen in cells or lysates may run through a third protein. For part of these data: Where a sequence is shown, tags or fusion partners need not be part of it.

By UniProt entry, the sequences of proteins in these tests, tags left out. Where a name states a change or a piece, a line headed by the entry shows the natural chain unless it says otherwise. Residues count along the entry.
UniProt P25776: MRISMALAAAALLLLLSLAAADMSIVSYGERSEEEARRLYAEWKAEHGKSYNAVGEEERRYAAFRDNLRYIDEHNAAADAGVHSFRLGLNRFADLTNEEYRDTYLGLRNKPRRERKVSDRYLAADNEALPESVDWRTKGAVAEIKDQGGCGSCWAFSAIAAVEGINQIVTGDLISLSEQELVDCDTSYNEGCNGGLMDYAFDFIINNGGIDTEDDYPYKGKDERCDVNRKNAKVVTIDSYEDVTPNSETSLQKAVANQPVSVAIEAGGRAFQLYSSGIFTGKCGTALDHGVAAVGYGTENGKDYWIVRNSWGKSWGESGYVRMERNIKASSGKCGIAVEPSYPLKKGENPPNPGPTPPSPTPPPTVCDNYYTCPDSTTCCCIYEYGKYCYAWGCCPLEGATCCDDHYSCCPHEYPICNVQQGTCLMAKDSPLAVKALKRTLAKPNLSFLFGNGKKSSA
BD-OCP-4 (OCP 1-348 aa, in pGBKT7) (rice (Oryza sativa)): residues 1-348 of P25776
BD-OCP-2 (OCP 111-348 aa, in pGBKT7) (rice (Oryza sativa)): residues 111-348 of P25776
UniProt P49027: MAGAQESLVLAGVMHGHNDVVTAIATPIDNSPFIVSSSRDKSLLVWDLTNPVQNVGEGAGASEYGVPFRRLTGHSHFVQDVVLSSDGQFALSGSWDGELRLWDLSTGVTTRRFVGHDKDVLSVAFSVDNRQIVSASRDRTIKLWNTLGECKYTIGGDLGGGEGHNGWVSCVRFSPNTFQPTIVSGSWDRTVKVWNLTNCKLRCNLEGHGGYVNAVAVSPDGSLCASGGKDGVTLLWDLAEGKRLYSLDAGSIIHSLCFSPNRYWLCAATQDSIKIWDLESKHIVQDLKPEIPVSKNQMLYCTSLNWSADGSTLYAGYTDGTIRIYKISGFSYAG

Key:
[1] = molecular target: T1, pBridge-OsSNAP32 (coding region of OsSNAP32 in MCS1 of pBridge, alone or with OCP in MCS2) (rice (Oryza sativa)) (UniProt Q0E1I7); test: yeast three-hybrid; pBridge with OsSNAP32 in MCS1 and/or OCP in MCS2, co-transformed with AD-OsRACK1A into Gold Y2H; growth on SD/-Ade-His-Leu-Met-Trp with X-alpha-gal, 30°C
T1 sequence: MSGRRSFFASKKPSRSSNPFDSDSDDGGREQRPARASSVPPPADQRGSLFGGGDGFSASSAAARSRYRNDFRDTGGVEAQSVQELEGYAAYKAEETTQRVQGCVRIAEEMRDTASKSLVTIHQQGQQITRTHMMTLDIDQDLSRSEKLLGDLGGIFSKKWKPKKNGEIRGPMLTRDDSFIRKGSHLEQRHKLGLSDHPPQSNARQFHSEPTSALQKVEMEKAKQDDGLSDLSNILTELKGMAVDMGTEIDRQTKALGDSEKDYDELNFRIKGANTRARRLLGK

[2] = molecular target: BD-OCP-2 (OCP 111-348 aa, in pGBKT7) (rice (Oryza sativa)) (UniProt P25776); test: two-hybrid; directed test in yeast strain Gold Y2H: pGBKT7 (BD) bait and pGADT7 (AD) prey; growth on SD/-Ade-His-Leu-Trp with X-alpha-gal, 30°C
[3] = molecular target: BD-OCP (oryzain alpha chain precursor, full length, in pGBKT7) (rice (Oryza sativa)) (UniProt P25776); test: as above
[4] = molecular target: BD-OCP-4 (OCP 1-348 aa, in pGBKT7) (rice (Oryza sativa)) (UniProt P25776); test: as above
[5] = molecular target: T2, BD-OsSNAP32 (CDS of OsSNAP32 in pGBKT7) (rice (Oryza sativa)) (UniProt Q0E1I7); test: as above
T2 sequence: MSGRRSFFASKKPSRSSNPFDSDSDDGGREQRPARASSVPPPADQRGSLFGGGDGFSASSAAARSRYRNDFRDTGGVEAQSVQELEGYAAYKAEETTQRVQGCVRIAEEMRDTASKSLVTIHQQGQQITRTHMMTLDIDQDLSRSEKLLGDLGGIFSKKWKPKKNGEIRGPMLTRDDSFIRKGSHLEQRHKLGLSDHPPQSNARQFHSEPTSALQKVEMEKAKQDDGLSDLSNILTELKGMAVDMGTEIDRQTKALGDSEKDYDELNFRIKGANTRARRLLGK

[6] = molecular target: cYFP-OCP (full-length coding region of OCP in pVYCE) (rice (Oryza sativa)) (UniProt P25776); test: split reporter; BiFC: cYFP-OCP with nYFP fusions in N. benthamiana leaves by Agrobacterium infiltration; fluorescence read after 3 or 4 days
[7] = molecular target: OCP-Myc (rice (Oryza sativa)) (UniProt P25776); test: co-IP; OCP-Myc co-expressed with mCherry fusions in rice protoplasts; lysate (50 mM Tris-HCl pH 7.5, 150 mM NaCl, 0.5% Triton X-100, 0.5% NP-40) incubated with Myc tag-Nanoab-Agarose Beads 2 h at 4°C; blot with anti-Myc and anti-mCherry

“AD-OsRACK1A (receptor for activated C kinase 1, full-length coding region in pGADT7) (from UniProt P49027)” was tested, and the binding [1] was “no binding”, the binding [2] was “binds” and the binding [3] was “binds”. The binding [4] was “binds” and the binding [5] was “no binding”.

“nYFP-OsRACK1A (in pVYNE) (from UniProt P49027)” was tested, and the binding [6] was “binds”.

For OsRACK1A-mCherry (from UniProt P49027), the binding [7] was “binds”.

B1: nYFP-OsSNAP32 (in pVYNE) (protein, UniProt Q0E1I7 1-283)
chain: MSGRRSFFASKKPSRSSNPFDSDSDDGGREQRPARASSVPPPADQRGSLFGGGDGFSASSAAARSRYRNDFRDTGGVEAQSVQELEGYAAYKAEETTQRVQGCVRIAEEMRDTASKSLVTIHQQGQQITRTHMMTLDIDQDLSRSEKLLGDLGGIFSKKWKPKKNGEIRGPMLTRDDSFIRKGSHLEQRHKLGLSDHPPQSNARQFHSEPTSALQKVEMEKAKQDDGLSDLSNILTELKGMAVDMGTEIDRQTKALGDSEKDYDELNFRIKGANTRARRLLGK
B1 was tested, and the binding [6] was “binds”.

B2: OsSNAP32-mCherry (protein, UniProt Q0E1I7 1-283)
chain: MSGRRSFFASKKPSRSSNPFDSDSDDGGREQRPARASSVPPPADQRGSLFGGGDGFSASSAAARSRYRNDFRDTGGVEAQSVQELEGYAAYKAEETTQRVQGCVRIAEEMRDTASKSLVTIHQQGQQITRTHMMTLDIDQDLSRSEKLLGDLGGIFSKKWKPKKNGEIRGPMLTRDDSFIRKGSHLEQRHKLGLSDHPPQSNARQFHSEPTSALQKVEMEKAKQDDGLSDLSNILTELKGMAVDMGTEIDRQTKALGDSEKDYDELNFRIKGANTRARRLLGK
For B2, the binding [7] was “binds”.
